Experimental data from publication PMC11261447.
No constants are given. Whether binding was seen depends on the method and setting. In cells and extracts the contact can be indirect. Some binding calls cover weakened binding; strength is not graded here. Where a sequence is shown, tags or fusion partners need not be part of it. Values belong to the molecule of their own block, whether it stands above or below them.

Protein sequences, listed by entry. Tags and fused reporters are not part of them.
UniProt Q12834: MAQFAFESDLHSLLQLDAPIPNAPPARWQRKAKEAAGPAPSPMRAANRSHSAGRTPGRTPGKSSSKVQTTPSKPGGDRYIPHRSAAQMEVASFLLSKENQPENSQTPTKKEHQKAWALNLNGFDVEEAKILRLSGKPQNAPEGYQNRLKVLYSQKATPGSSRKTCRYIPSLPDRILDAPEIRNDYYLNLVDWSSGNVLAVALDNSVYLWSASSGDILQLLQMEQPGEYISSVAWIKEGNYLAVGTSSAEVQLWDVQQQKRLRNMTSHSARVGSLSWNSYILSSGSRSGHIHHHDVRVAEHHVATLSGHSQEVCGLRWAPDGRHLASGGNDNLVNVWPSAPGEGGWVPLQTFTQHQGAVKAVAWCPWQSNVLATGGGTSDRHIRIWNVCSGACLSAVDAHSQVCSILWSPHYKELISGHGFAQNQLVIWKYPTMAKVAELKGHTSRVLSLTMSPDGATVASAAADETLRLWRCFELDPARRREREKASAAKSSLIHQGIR

Experiments:
[1] = target: T1, O-linked β-N-acetylglucosamine (O-GlcNAc) transferase (OGT), endogenous (human (endogenous in 293T)) (UniProt O15294); test: co-IP; cells transfected with Flag-Cdc20, treated with nocodazole or not; endogenous OGT; immunoprecipitation and immunoblotting with the antibodies indicated
T1 sequence: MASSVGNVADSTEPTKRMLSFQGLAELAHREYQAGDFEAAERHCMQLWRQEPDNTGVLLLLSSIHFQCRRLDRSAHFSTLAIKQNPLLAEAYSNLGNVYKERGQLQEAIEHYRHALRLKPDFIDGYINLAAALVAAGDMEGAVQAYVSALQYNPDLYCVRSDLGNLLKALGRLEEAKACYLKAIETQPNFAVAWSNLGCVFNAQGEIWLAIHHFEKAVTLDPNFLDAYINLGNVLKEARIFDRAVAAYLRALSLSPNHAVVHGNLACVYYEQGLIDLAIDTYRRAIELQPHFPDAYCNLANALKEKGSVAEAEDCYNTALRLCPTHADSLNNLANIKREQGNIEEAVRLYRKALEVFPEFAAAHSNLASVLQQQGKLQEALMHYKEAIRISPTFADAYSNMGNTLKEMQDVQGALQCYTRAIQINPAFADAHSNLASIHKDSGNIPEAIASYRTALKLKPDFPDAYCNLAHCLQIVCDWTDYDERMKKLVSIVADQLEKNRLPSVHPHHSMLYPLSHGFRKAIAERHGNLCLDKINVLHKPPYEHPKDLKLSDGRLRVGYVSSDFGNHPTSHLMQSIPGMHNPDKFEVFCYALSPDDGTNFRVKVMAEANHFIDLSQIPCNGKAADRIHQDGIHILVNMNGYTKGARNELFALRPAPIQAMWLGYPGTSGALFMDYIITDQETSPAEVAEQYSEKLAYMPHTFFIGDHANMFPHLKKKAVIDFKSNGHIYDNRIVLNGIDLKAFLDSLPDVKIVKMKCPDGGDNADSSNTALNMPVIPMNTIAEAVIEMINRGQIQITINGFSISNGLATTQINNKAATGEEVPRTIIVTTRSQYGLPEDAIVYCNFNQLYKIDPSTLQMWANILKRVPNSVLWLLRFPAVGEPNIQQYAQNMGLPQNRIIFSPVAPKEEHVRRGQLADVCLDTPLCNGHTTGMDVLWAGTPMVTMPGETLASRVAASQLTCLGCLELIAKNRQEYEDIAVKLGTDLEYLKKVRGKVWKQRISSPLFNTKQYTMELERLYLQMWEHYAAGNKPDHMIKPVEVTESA

HA-OGT-WT = target: T2, HA-OGT-WT (UniProt O15294); test: co-IP; cells (293T where named) transfected with HA-OGT (WT or mutant) and Flag-CDC20; lysates immunoprecipitated and immunoblotted with the antibodies indicated
T2 sequence: T1 sequence

recombinant GST-OGT = target: T3, recombinant GST-OGT (UniProt O15294); test: pull-down; lysates of cells transfected with HA-CDC20 incubated with recombinant GST-OGT; only the target purified
T3 sequence: T1 sequence

[2] = target: T1, O-linked β-N-acetylglucosamine (O-GlcNAc) transferase (OGT), endogenous (human (endogenous in 293T)); test: co-IP; endogenous proteins; lysates of 293T cells treated with nocodazole or not, immunoprecipitated with an anti-OGT antibody, immunoblotted with anti-OGT and anti-CDC20
Flag-CDC20 = Flag-CDC20 (UniProt Q12834); test: co-IP; cells (293T where named) transfected with HA-OGT (WT or mutant) and Flag-CDC20; lysates immunoprecipitated and immunoblotted with the antibodies indicated

Molecule: HA-CDC20 (from UniProt Q12834 1-499)
binding (recombinant GST-OGT): binds

Molecule: cell division cycle 20 (Cdc20), endogenous (from UniProt Q12834 1-499)
binding [2]: binds

Results, then the molecule that gave them:

binding [1]: binds
binding (HA-OGT-WT): binds
Molecule: Flag-CDC20 (from UniProt Q12834 1-499)

binding (Flag-CDC20): binds
B1: HA-OGT-WT (enzyme, UniProt O15294 1-1046)
chain: T1 sequence
